# Test results: the supplement of paper PMC8728848
# The other results are listed elsewhere or left out.
# B1: Pwp7 (Candida glabrata) (protein)
# chain: MGSSHHHHHHSSGLVPRGSHMASKNPVDFPNLCQYPNLDGAVAGFDTEIYNADPSILINFSLWPILQFPKEWHKTIGRAITTQTNFKLPASDTTLFGVSIPTQNILIEFRGYFIPPKSGTYTFALYLTDDGSAMFLGNDAAFPCGNITSWSNPTNDQVSVSDYDPKKKTLTVYMVAGVAYPLRIAYYNREKGGSLTASFVDPDGLTHSDWNGYIWTLPSCDNCKYS
# Columns and labels:
# Experiment in all cases: glycan array binding signal (z-score within array); higher = stronger binding
# Conditions in all cases: glycan notation: IUPAC condensed, linker removed
# [1] = target: Neu5Ac(a2-3)GalNAc
# Outline: (§1)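 Columns mapping to the same glycan were averaged after glycan names were converted to IUPAC-condensed notation. The data come from 3228 arrays in the Consortium for Functional Glycomics database, limited to those with an available protein sequence. Binding is reported as a within-array Z-score averaged across arrays of one protein sequence and across linkers.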
# [2] = target: Neu5Ac(a2-3)GalNAc(b1-4)GlcNAc
# Outline: as §1
# [3] = target: Neu5Ac(a2-3)[GalNAc(b1-4)]Gal(b1-4)Glc
# Outline: as §1
# [4] = target: Neu5Ac(a2-3)[GalNAc(b1-4)]Gal(b1-4)GlcNAc
# Outline: as §1
# [5] = target: Neu5Ac(a2-3)[GalNAc(b1-4)]Gal(b1-4)GlcNAc(b1-3)GalNAc
# Outline: as §1
# [6] = target: Neu5Ac(a2-3)[Neu5Ac(a2-6)]GalNAc
# Outline: as §1
# [7] = target: Neu5Ac(a2-6)Gal
# Outline: as §1
# [8] = target: Neu5Ac(a2-6)Gal(b1-3)GlcNAc(b1-3)[Gal(b1-4)GlcNAc(b1-6)]Gal(b1-4)Glc
# Outline: as §1
# [9] = target: Neu5Ac(a2-6)Gal(b1-4)Glc
# Outline: as §1
# [10] = target: Neu5Ac(a2-6)Gal(b1-4)GlcNAc
# Outline: as §1
# [11] = target: Neu5Ac(a2-6)Gal(b1-4)GlcNAc(b1-2)Man
# Outline: as §1
# [12] = target: Neu5Ac(a2-6)Gal(b1-4)GlcNAc(b1-2)Man(a1-3)Man(b1-4)GlcNAc(b1-4)GlcNAc
# Outline: as §1
# [13] = target: Neu5Ac(a2-6)Gal(b1-4)GlcNAc(b1-2)Man(a1-3)[Gal(b1-4)GlcNAc(b1-2)Man(a1-6)]Man(b1-4)GlcNAc(b1-4)GlcNAc
# Outline: as §1
# [14] = target: Neu5Ac(a2-6)Gal(b1-4)GlcNAc(b1-2)Man(a1-3)[GlcNAc(b1-4)][Neu5Ac(a2-6)Gal(b1-4)GlcNAc(b1-2)Man(a1-6)]Man(b1-4)GlcNAc(b1-4)GlcNAc
# Outline: as §1
# [15] = target: Neu5Ac(a2-6)Gal(b1-4)GlcNAc(b1-2)Man(a1-3)[Man(a1-6)]Man(b1-4)GlcNAc(b1-4)GlcNAc
# Outline: as §1
# [16] = target: Neu5Ac(a2-6)Gal(b1-4)GlcNAc(b1-2)Man(a1-3)[Neu5Ac(a2-3)Gal(b1-4)GlcNAc(b1-2)Man(a1-6)]Man(b1-4)GlcNAc(b1-4)GlcNAc
# Outline: as §1
# [17] = target: Neu5Ac(a2-6)Gal(b1-4)GlcNAc(b1-2)Man(a1-3)[Neu5Ac(a2-6)Gal(b1-4)GlcNAc(b1-2)Man(a1-6)]Man(b1-4)GlcNAc(b1-4)GlcNAc
# Outline: as §1
# [18] = target: Neu5Ac(a2-6)Gal(b1-4)GlcNAc(b1-2)Man(a1-3)[Neu5Ac(a2-6)Gal(b1-4)GlcNAc(b1-2)Man(a1-6)]Man(b1-4)GlcNAc(b1-4)[Fuc(a1-6)]GlcNAc
# Outline: as §1
# [19] = target: Neu5Ac(a2-6)Gal(b1-4)GlcNAc(b1-2)Man(a1-6)Man(b1-4)GlcNAc(b1-4)GlcNAc
# Outline: as §1
# [20] = target: Neu5Ac(a2-6)Gal(b1-4)GlcNAc(b1-2)Man(a1-6)[Gal(b1-4)GlcNAc(b1-2)Man(a1-3)]Man(b1-4)GlcNAc(b1-4)GlcNAc
# Outline: as §1
# [21] = target: Neu5Ac(a2-6)Gal(b1-4)GlcNAc(b1-2)Man(a1-6)[GlcNAc(b1-2)Man(a1-3)]Man(b1-4)GlcNAc(b1-4)GlcNAc
# Outline: as §1
# [22] = target: Neu5Ac(a2-6)Gal(b1-4)GlcNAc(b1-2)Man(a1-6)[Man(a1-3)]Man(b1-4)GlcNAc(b1-4)GlcNAc
# Outline: as §1
# [23] = target: Neu5Ac(a2-6)Gal(b1-4)GlcNAc(b1-2)[Neu5Ac(a2-6)Gal(b1-4)GlcNAc(b1-4)]Man(a1-3)[GlcNAc(b1-4)][Neu5Ac(a2-6)Gal(b1-4)GlcNAc(b1-2)[Neu5Ac(a2-6)Gal(b1-4)GlcNAc(b1-6)]Man(a1-6)]Man(b1-4)GlcNAc(b1-4)GlcNAc
# Outline: as §1
# [24] = target: Neu5Ac(a2-6)Gal(b1-4)GlcNAc(b1-2)[Neu5Ac(a2-6)Gal(b1-4)GlcNAc(b1-4)]Man(a1-3)[GlcNAc(b1-4)][Neu5Ac(a2-6)Gal(b1-4)GlcNAc(b1-4)Man(a1-6)]Man(b1-4)GlcNAc(b1-4)GlcNAc
# Outline: as §1
# [25] = target: Neu5Ac(a2-6)Gal(b1-4)GlcNAc(b1-2)[Neu5Ac(a2-6)Gal(b1-4)GlcNAc(b1-6)]Man(a1-6)[Neu5Ac(a2-6)Gal(b1-4)GlcNAc(b1-2)Man(a1-3)][GlcNAc(b1-4)]Man(b1-4)GlcNAc(b1-4)GlcNAc
# Outline: as §1
# [26] = target: Neu5Ac(a2-6)Gal(b1-4)GlcNAc(b1-3)Gal(b1-3)GlcNAc
# Outline: as §1
# [27] = target: Neu5Ac(a2-6)Gal(b1-4)GlcNAc(b1-3)Gal(b1-4)GlcNAc
# Outline: as §1
# [28] = target: Neu5Ac(a2-6)Gal(b1-4)GlcNAc(b1-3)Gal(b1-4)GlcNAc(b1-2)Man(a1-3)[Neu5Ac(a2-6)Gal(b1-4)GlcNAc(b1-3)Gal(b1-4)GlcNAc(b1-2)Man(a1-6)]GalNAc
# Outline: as §1
# [29] = target: Neu5Ac(a2-6)Gal(b1-4)GlcNAc(b1-3)Gal(b1-4)GlcNAc(b1-3)Gal(b1-4)GlcNAc
# Outline: as §1
# [30] = target: Neu5Ac(a2-6)Gal(b1-4)GlcNAc(b1-3)Gal(b1-4)GlcNAc(b1-3)Gal(b1-4)GlcNAc(b1-2)Man(a1-3)[Neu5Ac(a2-6)Gal(b1-4)GlcNAc(b1-3)Gal(b1-4)GlcNAc(b1-3)Gal(b1-4)GlcNAc(b1-2)Man(a1-6)]GalNAc
# Outline: as §1
# [31] = target: Neu5Ac(a2-6)Gal(b1-4)GlcNAc(b1-3)Gal(b1-4)GlcNAc(b1-3)GalNAc
# Outline: as §1
# [32] = target: Neu5Ac(a2-6)Gal(b1-4)GlcNAc(b1-3)Gal(b1-4)GlcNAc(b1-3)[Neu5Ac(a2-6)Gal(b1-4)GlcNAc(b1-3)Gal(b1-4)GlcNAc(b1-6)]GalNAc
# Outline: as §1
# [33] = target: Neu5Ac(a2-6)Gal(b1-4)GlcNAc(b1-3)Gal(b1-4)GlcNAc(b1-6)[Gal(b1-3)]GalNAc
# Outline: as §1
# [34] = target: Neu5Ac(a2-6)Gal(b1-4)GlcNAc(b1-3)Gal(b1-4)[Fuc(a1-3)]GlcNAc(b1-3)Gal(b1-4)[Fuc(a1-3)]GlcNAc
# Outline: as §1
# [35] = target: Neu5Ac(a2-6)Gal(b1-4)GlcNAc(b1-3)GalNAc
# Outline: as §1
# [36] = target: Neu5Ac(a2-6)Gal(b1-4)GlcNAc(b1-3)[Neu5Ac(a2-6)Gal(b1-4)GlcNAc(b1-6)]GalNAc
# Outline: as §1
# [37] = target: Neu5Ac(a2-6)Gal(b1-4)GlcNAc(b1-6)GalNAc
# Outline: as §1
# [38] = target: Neu5Ac(a2-6)Gal(b1-4)GlcNAc(b1-6)[Gal(b1-3)GlcNAc(b1-3)]Gal(b1-4)Glc
# Outline: as §1
# [39] = target: Neu5Ac(a2-6)Gal(b1-4)GlcNAc(b1-6)[Gal(b1-3)]GalNAc
# Outline: as §1
# [40] = target: Neu5Ac(a2-6)Gal(b1-4)GlcNAc6S
# Outline: as §1
# [41] = target: Neu5Ac(a2-6)GalNAc
# Outline: as §1
# [42] = target: Neu5Ac(a2-6)GalNAc(b1-4)GlcNAc
# Outline: as §1
# [43] = target: Neu5Ac(a2-6)GalNAc(b1-4)GlcNAc6S
# Outline: as §1
# [44] = target: Neu5Ac(a2-6)GlcNAc(b1-4)GlcNAc
# Outline: as §1
# [45] = target: Neu5Ac(a2-6)GlcNAc(b1-4)GlcNAc(b1-4)GlcNAc
# Outline: as §1
binder,measurement,setting,value
B1,glycan array binding signal (z-score),[1],-0.36
same,glycan array binding signal (z-score),[2],-0.514
same,glycan array binding signal (z-score),[3],0.515
same,glycan array binding signal (z-score),[4],-0.542
same,glycan array binding signal (z-score),[5],0.373
same,glycan array binding signal (z-score),[6],1.72
same,glycan array binding signal (z-score),[7],-1.18
same,glycan array binding signal (z-score),[8],-0.363
same,glycan array binding signal (z-score),[9],-0.159
same,glycan array binding signal (z-score),[10],-0.878
same,glycan array binding signal (z-score),[11],-0.256
same,glycan array binding signal (z-score),[12],0.078
same,glycan array binding signal (z-score),[13],-0.168
same,glycan array binding signal (z-score),[14],0.213
same,glycan array binding signal (z-score),[15],0.04
same,glycan array binding signal (z-score),[16],1.81
same,glycan array binding signal (z-score),[17],0.696
same,glycan array binding signal (z-score),[18],0.532
same,glycan array binding signal (z-score),[19],0.746
same,glycan array binding signal (z-score),[20],-0.078
same,glycan array binding signal (z-score),[21],1.52
same,glycan array binding signal (z-score),[22],0.77
same,glycan array binding signal (z-score),[23],-0.287
same,glycan array binding signal (z-score),[24],-0.298
same,glycan array binding signal (z-score),[25],-0.125
same,glycan array binding signal (z-score),[26],-0.452
same,glycan array binding signal (z-score),[27],-0.707
same,glycan array binding signal (z-score),[28],1.92
same,glycan array binding signal (z-score),[29],0.98
same,glycan array binding signal (z-score),[30],3.78
same,glycan array binding signal (z-score),[31],0.805
same,glycan array binding signal (z-score),[32],2.04
same,glycan array binding signal (z-score),[33],0.645
same,glycan array binding signal (z-score),[34],-0.43
same,glycan array binding signal (z-score),[35],0.055
same,glycan array binding signal (z-score),[36],-0.154
same,glycan array binding signal (z-score),[37],-0.331
same,glycan array binding signal (z-score),[38],0.395
same,glycan array binding signal (z-score),[39],0.496
same,glycan array binding signal (z-score),[40],0.062
same,glycan array binding signal (z-score),[41],-0.9
same,glycan array binding signal (z-score),[42],0.016
same,glycan array binding signal (z-score),[43],0.154
same,glycan array binding signal (z-score),[44],0.199
same,glycan array binding signal (z-score),[45],-0.434

# An excerpt of these results, bar-delimited:
binder | measurement | setting | value
B1 | glycan array binding signal (z-score) | [16] | 1.81
same | glycan array binding signal (z-score) | [23] | -0.287
same | glycan array binding signal (z-score) | [25] | -0.125
